Source: article PMC11181022, “The molecular architecture of Lactobacillus S-layer: Assembly and attachment to teichoic acids” (Proceedings of the National Academy of Sciences of the …, 2024)
No constants are given. Whether binding was seen depends on the method and setting. Some binding calls cover weakened binding; strength is not graded here. Each block holds one binder with its values, some of them ahead of it.

Experiments:
[1] = target: SlpX_ac_II, middle domain of the S-layer protein SlpX of Lactobacillus acidophilus (Lactobacillus acidophilus ATCC4356) (UniProt Q5FLN0); assay: crystal structure; contacts between neighbouring molecules in crystals of single recombinant domains; sitting drop vapor diffusion, 20 °C, data at 100 K; both purified
[2] = target: SlpA_ac_II, domain II of the S-layer protein SlpA of Lactobacillus acidophilus ATCC4356 (Lactobacillus acidophilus ATCC4356) (UniProt P35829); assay: as above

- binding [1]: binds
B1: SlpX_ac_II, middle domain of the S-layer protein SlpX of Lactobacillus acidophilus (domain or fragment, UniProt Q5FLN0 184-362)
chain: STPTDTTQNPQINWTKGGQAQSSSLNGQVFQVAVGSNFNPLNFTNSNGENIIVSAQQSKNNTTFASIEATSNPVNTSEAGRYYNVTLTATGNTGKKTTATYTVLITSSQKQTLYGNGESTISTYSIYGNNVLSNSTTFKDGDQVYVSDQTKTVGGVSYSQVSPKSKNDANSSNIWVKTS

- binding [2]: binds
B2: SlpA_ac_II, domain II of the S-layer protein SlpA of Lactobacillus acidophilus ATCC4356 (domain or fragment, UniProt P35829 199-308)
chain: NVNFYDVTSGATVTNGAVSVNADNQGQVNVANVVAAINSKYFAAQYADKKLNTRTANTEDAIKAALKDQKIDVNSVGYFKAPHTFTVNVKATSNTNGKSATLPVVVTVPN
